Measured values published in patent publication US20240218067A1 (ONCOC4, published 2024).
Results are given in words; binding and its absence hold for the method and conditions named. Some binding calls cover weakened binding; strength is not graded here.

T1: Siglec-10 (Biacore analysis) (UniProt Q96LC7)
T1 sequence (looked up): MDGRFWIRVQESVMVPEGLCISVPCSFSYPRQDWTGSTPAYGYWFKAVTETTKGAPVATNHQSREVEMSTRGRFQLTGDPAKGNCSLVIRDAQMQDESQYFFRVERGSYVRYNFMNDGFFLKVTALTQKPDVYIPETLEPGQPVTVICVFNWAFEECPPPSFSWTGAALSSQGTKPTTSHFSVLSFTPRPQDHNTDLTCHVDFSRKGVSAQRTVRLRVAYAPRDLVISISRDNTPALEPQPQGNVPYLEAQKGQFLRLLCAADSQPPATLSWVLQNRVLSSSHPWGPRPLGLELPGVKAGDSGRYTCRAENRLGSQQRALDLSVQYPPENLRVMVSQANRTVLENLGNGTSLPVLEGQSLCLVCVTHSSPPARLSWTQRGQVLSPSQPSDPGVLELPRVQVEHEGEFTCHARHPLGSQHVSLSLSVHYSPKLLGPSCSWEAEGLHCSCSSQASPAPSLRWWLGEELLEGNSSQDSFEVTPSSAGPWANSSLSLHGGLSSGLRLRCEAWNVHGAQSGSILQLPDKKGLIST


biological target: T1, Siglec-10 (Biacore analysis); experiment: Biacore

| binding | Binder |
| --- | --- |
| binds | humanized 31F11 clone #21 (antibody, V domains shown, also called hu-VHv1VLv2) VH: QVTLKESGPALVKPTQTLTLTCTFSGFSLSTSGMGLSWIRQPPGKALEWLAHIYWDDDKRYNPSLKSRLTISKDTSKNQVVLTMTNMDPVDTATYYCVRGLYGNWFFDVWGQGTTVTVSS VL: DIVMTQSPATLSVSPGERATLSCKASQNVGTAVAWYQQKPGQAPRLLIYSASNRYTGVPARFSGSGSGTEFTLTISSLQSEDFAVYFCQQYSSYPLTFGGGTKVEIK |
| binds | humanized 31F11 clone #22 (antibody, V domains shown, also called hu-VHv2VLv2) VH: QVTLKESGPALVKPTQTLTLTCTFSGFSLSTSGMGLSWIRQPPGKALEWLAHIYWDDDKRYNPSLKSRLTISKDTSKNQVVLTMTNMDPVDTATYYCVRGLYGNWFFDVWGAGTTVTVSS VL: DIVMTQSPATLSVSPGERATLSCKASQNVGTAVAWYQQKPGQAPRLLIYSASNRYTGVPARFSGSGSGTEFTLTISSLQSEDFAVYFCQQYSSYPLTFGGGTKVEIK |
| binds | humanized 31F11 clone #23 (antibody, V domains shown) VH: QVTLKESGPALVKPTQTLTLTCTFSGFSLSTSGMGLSWIRQPPGKALEWLAHIYWDDDKRYNPSLKSRLTISKDTSKNQVVLTMTNMDPVDTATYYCARGLYGNWFFDVWGQGTTVTVSS VL: DIVMTQSPATLSVSPGERATLSCKASQNVGTAVAWYQQKPGQAPRLLIYSASNRYTGVPARFSGSGSGTEFTLTISSLQSEDFAVYFCQQYSSYPLTFGGGTKVEIK |
